# From PubChem BioAssay AID248 (DTP/NCI, 2004)
# The list shows only some results of the screen, not a fair sample: it is rich in T/C values a quarter to a half above the control, in often repeated tests (any T/C) and in doses without a T/C. Further doses and runs are listed elsewhere. T/C: endpoint of the treated group in % of that of the vehicle group. Some entries give survivors of the animals treated and no T/C: the source holds a T/C of zero for them, seemingly a mark for toxic or unscored doses. Some survivor counts are full or nearly so, which does not show that the dose was tolerated: survival well below the control is almost never listed, so the zero probably covers shortened survival too. Counts of survivors are from the toxicity check (mostly the fifth day) where no day follows; animals may have died later. Schedule codes are those of the source, read here as Q, the interval in days (D) or hours (H), X, the number of doses. Some entries were tested several times; the results are listed from low to high. Where survival is the endpoint, the PubChem record calls one and a half times the control and up active, and a quarter to a half above the control has no call in these data; cut-offs in other NCI protocols can differ. Some T/C values are followed by the survivors on the day toxicity was checked, most often the fifth; where none is given, no animal had died by that day. Counts like (3×) count equal records among those shown.
# Tested on: L1210 leukemia ip in BDF1 mice, survival T/C
# Assay: NCI In Vivo Anticancer Drug Screen. Data for tumor model L1210 Leukemia (intraperitoneal) in B6D2F1 (BDF1) mice
# Settings: T/C endpoint: mean survival time, higher T/C = longer survival
# [1] = dose: 50.0 mg/kg/injection, schedule: Q01DX009 (ip), vehicle: saline with Tween-80
# [2] = dose: 300.0 mg/kg/injection, schedule: Q01DX001 (ip), vehicle: saline
# [3] = dose: 100.0 mg/kg/injection, schedule: Q01DX009 (ip), vehicle: saline with Tween-80
# [4] = dose: 200.0 mg/kg/injection, schedule: Q01DX009 (ip), vehicle: saline with Tween-80
# [5] = dose: 400.0 mg/kg/injection, schedule: Q04DX003 (ip), vehicle: saline with Tween-80
# [6] = dose: 200.0 mg/kg/injection, schedule: Q04DX003 (ip), vehicle: saline with Tween-80
# [7] = dose: 400.0 mg/kg/injection, schedule: Q04DX003 (ip), vehicle: Klucel (hydroxypropylcellulose) (HPC)
# [8] = dose: 20.0 mg/kg/injection, schedule: Q01DX001 (ip), vehicle: saline
# [9] = dose: 40.0 mg/kg/injection, schedule: Q01DX001 (ip), vehicle: saline
# [10] = dose: 400.0 mg/kg/injection, schedule: Q04DX002 (ip), vehicle: saline with Tween-80
# [11] = dose: 100.0 mg/kg/injection, schedule: Q04DX002 (ip), vehicle: Klucel (hydroxypropylcellulose) (HPC)
# [12] = dose: 200.0 mg/kg/injection, schedule: Q04DX002 (ip), vehicle: Klucel (hydroxypropylcellulose) (HPC)
# [13] = dose: 400.0 mg/kg/injection, schedule: Q04DX002 (ip), vehicle: Klucel (hydroxypropylcellulose) (HPC)
smiles,measurement,setting,value
CCOC(=O)N1C(=O)NC(=O)C1c1ccc(Cl)cc1 (stereo unspecified),survivor count,"dose: 400.0 mg/kg/injection, schedule: Q01DX001 (ip), vehicle: saline",1 of 4
S=c1c2[nH]cnc2ncn1C1CCCCC1,survivor count,"dose: 15.0 mg/kg/injection, schedule: Q01DX009 (ip), vehicle: saline with Tween-80",1 of 6
same,survivor count,"dose: 22.0 mg/kg/injection, schedule: Q01DX009 (ip), vehicle: saline with Tween-80",2 of 6
same,survivor count,"dose: 33.5 mg/kg/injection, schedule: Q01DX009 (ip), vehicle: saline with Tween-80",0 of 6
same,survivor count,[1],0 of 6
C[n+]1ccc(/C=C/c2ccc(O)c3ccccc23)cc1,survivor count,[2],0 of 6
O=C(O)C1CCCCC1C(=O)Nc1cccc(C(F)(F)F)c1 (stereo unspecified),survivor count,[3],5 of 6
same,survivor count,[4],3 of 6
same,survivor count,[5],4 of 6
O=C(Nc1ccc(S(=O)(=O)F)cc1)Oc1ccc([N+](=O)[O-])cc1,T/C,[3],"89 (2×), 91, 93 % of control [4 of 6 alive]"
same,survivor count,[4],3 of 6
same,survivor count,"dose: 400.0 mg/kg/injection, schedule: Q01DX009 (ip), vehicle: saline with Tween-80",0 of 3 and 5 of 6
O=C(Nc1ccc(Cl)cc1[N+](=O)[O-])Oc1ccc(Cl)cc1Cc1ccccc1,survivor count,[6],6 of 6
CCN(CC)CCCNc1nc(C(Cl)(Cl)Cl)nc2ccc(I)cc12,survivor count,"dose: 400.0 mg/kg/injection, schedule: Q01DX009 (ip), vehicle: Klucel (hydroxypropylcellulose) (HPC)",5 of 6
CS(=O)(=O)NC1=NCCN1[N+](=O)[O-],survivor count,"dose: 80.0 mg/kg/injection, schedule: Q04DX003 (ip), vehicle: Klucel (hydroxypropylcellulose) (HPC)",3 of 6
same,survivor count,"dose: 100.0 mg/kg/injection, schedule: Q04DX003 (ip), vehicle: Klucel (hydroxypropylcellulose) (HPC)",2 of 6
same,survivor count,"dose: 200.0 mg/kg/injection, schedule: Q04DX003 (ip), vehicle: Klucel (hydroxypropylcellulose) (HPC)",0 of 6
same,survivor count,[7],0 of 6
CCCCCCCCOP(=O)(N1CC1C)N1CC1C (stereo unspecified),T/C,"dose: 50.0 mg/kg/injection, schedule: Q01DX009 (ip), vehicle: acetone",148 % of control
same,T/C,"dose: 50.0 mg/kg/injection, schedule: Q01DX009 (ip), vehicle: saline",125 % of control
same,T/C,"dose: 75.0 mg/kg/injection, schedule: Q01DX009 (ip), vehicle: saline",136 % of control
same,survivor count,"dose: 100.0 mg/kg/injection, schedule: Q01DX009 (ip), vehicle: acetone",0 of 6
same,survivor count,"dose: 200.0 mg/kg/injection, schedule: Q01DX009 (ip), vehicle: acetone",0 of 6
same,survivor count,"dose: 400.0 mg/kg/injection, schedule: Q01DX001 (ip), vehicle: acetone",0 of 6
CNC(=O)Oc1cccc(N(C)C)c1,survivor count,"dose: 38.0 mg/kg/injection, schedule: Q01DX001 (ip), vehicle: other",1 of 6
same,survivor count,"dose: 75.0 mg/kg/injection, schedule: Q01DX001 (ip), vehicle: other",0 of 6
same,survivor count,"dose: 150.0 mg/kg/injection, schedule: Q01DX001 (ip), vehicle: other",0 of 6
same,survivor count,"dose: 300.0 mg/kg/injection, schedule: Q01DX001 (ip), vehicle: other",0 of 6
CCC[CH2][Sn]([CH2]CCC)([CH2]CCC)[S]C(=S)NCCNC(=S)[S][Sn]([CH2]CCC)([CH2]CCC)[CH2]CCC,survivor count,[8],1 of 4
same,survivor count,[9],2 of 4
same,survivor count,"dose: 50.0 mg/kg/injection, schedule: Q01DX015 (ip), vehicle: carboxymethylcellulose (CMC)",3 of 6
same,survivor count,"dose: 100.0 mg/kg/injection, schedule: Q01DX015 (ip), vehicle: carboxymethylcellulose (CMC)",0 of 6
C=C(C)CC(N)Cc1ccccc1 (stereo unspecified),survivor count,"dose: 25.0 mg/kg/injection, schedule: Q04DX002 (ip), vehicle: saline with Tween-80",3 of 3
same,survivor count,"dose: 200.0 mg/kg/injection, schedule: Q04DX002 (ip), vehicle: saline with Tween-80",0 of 3
same,survivor count,[10],0 of 3
COc1ccc(/C=N/NC(=S)Nc2ccccc2)cc1OC,survivor count,"dose: 200.0 mg/kg/injection, schedule: Q01DX009 (ip), vehicle: Klucel (hydroxypropylcellulose) (HPC)",0 of 6
O=C(NCCCl)Nc1ccc2c3c1CCCC3CC2 (stereo unspecified),survivor count,[7],5 of 6
CC(=O)C1COC(O)C1C (stereo unspecified),survivor count,"dose: 5.0 mg/kg/injection, schedule: Q01DX009 (ip), vehicle: saline",6 of 6
same,survivor count,[8],0 of 6
same,survivor count,[9],3 of 6
same,survivor count,"dose: 80.0 mg/kg/injection, schedule: Q01DX001 (ip), vehicle: saline",0 of 6
O=C(Cl)COc1cc(Cl)c(Cl)cc1Cl,survivor count,"dose: 400.0 mg/kg/injection, schedule: Q04DX002 (ip), vehicle: gum acacia",2 of 3
N=C(N)SCc1cccc([N+](=O)[O-])c1,survivor count,"dose: 100.0 mg/kg/injection, schedule: Q04DX002 (ip), vehicle: saline with Tween-80",3 of 3
CC[CH2][Pb]([CH2]CC)([CH2]CC)[O]C(=O)C(F)(F)F,survivor count,"dose: 50.0 mg/kg/injection, schedule: Q04DX002 (ip), vehicle: Klucel (hydroxypropylcellulose) (HPC)",0 of 3
same,survivor count,[11],0 of 3
same,survivor count,[12],0 of 3
same,survivor count,[13],2 of 3
COC(=O)c1ccccc1NC(OC)c1cccc([N+](=O)[O-])c1 (stereo unspecified),T/C,[1],"95 (2×), 100, 101 % of control"
same,T/C,[3],92 [5 of 6 alive] and 98 % of control [2 of 3 alive]
same,survivor count,[3],3 of 3 and 6 of 6
same,T/C,[4],"88, 90 [2 of 3 alive], 91, 93 % of control"
same,survivor count,[10],3 of 3
CCCCCC(Oc1ccc(Cl)cc1)C(=O)O (stereo unspecified),survivor count,[7],1 of 6
CCCCCCCCCN=C(N)CSSCC(N)=NCCCCCCCCC,survivor count,"dose: 10.0 mg/kg/injection, schedule: Q04DX002 (ip), vehicle: Klucel (hydroxypropylcellulose) (HPC)",0 of 3
same,survivor count,"dose: 20.0 mg/kg/injection, schedule: Q04DX002 (ip), vehicle: Klucel (hydroxypropylcellulose) (HPC)",0 of 3
same,survivor count,"dose: 40.0 mg/kg/injection, schedule: Q04DX002 (ip), vehicle: Klucel (hydroxypropylcellulose) (HPC)",0 of 3
same,survivor count,"dose: 100.0 mg/kg/injection, schedule: Q01DX001 (ip), vehicle: Klucel (hydroxypropylcellulose) (HPC)",0 of 3
same,survivor count,[11],0 of 3
same,survivor count,"dose: 200.0 mg/kg/injection, schedule: Q01DX001 (ip), vehicle: Klucel (hydroxypropylcellulose) (HPC)",0 of 3
same,survivor count,[12],0 of 3
same,survivor count,"dose: 400.0 mg/kg/injection, schedule: Q01DX001 (ip), vehicle: Klucel (hydroxypropylcellulose) (HPC)",0 of 3
same,survivor count,[13],0 of 3
CSc1cnnc2ccccc12,survivor count,"dose: 100.0 mg/kg/injection, schedule: Q01DX009 (ip), vehicle: Klucel (hydroxypropylcellulose) (HPC)",3 of 6
OC1CC2CCC(C1)N2 (stereo unspecified),survivor count,[2],3 of 6
O=NN1CCN(N=O)CC1,survivor count,"dose: 25.0 mg/kg/injection, schedule: Q01DX009 (ip), vehicle: saline with Tween-80",2 of 6
same,survivor count,[1],3 of 6
same,survivor count,[3],0 of 6
same,survivor count,"dose: 200.0 mg/kg/injection, schedule: Q01DX001 (ip), vehicle: carboxymethylcellulose (CMC)",3 of 6
same,survivor count,[6],0 of 6
same,survivor count,"dose: 400.0 mg/kg/injection, schedule: Q01DX001 (ip), vehicle: carboxymethylcellulose (CMC)",3 of 6
same,survivor count,[5],0 of 6
